Laboratory results: the supplement of paper PMC4604168 (melanoma cell lines)
This is one part of the list. Single values are uncertain, as repeats are few or missing.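 The apoptosis fraction was the count of cleaved-PARP antibody-stained nuclei relative to all DNA-stained nuclei, imaged in 1,536-well plates. Screening doses were set so most cells survived, and baseline and induced cleaved-PARP levels vary greatly across cell lines.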

Experiments:
Test in all cases: cleaved PARP positive nuclei fraction relative to DMSO control; melanoma cells; higher = more apoptosis
Settings in all cases: library dose: low library concentration; 72 h
MZ2-MEL = tested on: MZ2-MEL
MeWo = tested on: MeWo
RPMI7951 = tested on: RPMI7951
RVH-421 = tested on: RVH-421
SkMel28 = tested on: SkMel28
SkMel2 = tested on: SkMel2
SkMel30 = tested on: SkMel30
SkMel5 = tested on: SkMel5
UACC257 = tested on: UACC257
UACC62 = tested on: UACC62
WM115 = tested on: WM115
WM1716 = tested on: WM1716
WM1745 = tested on: WM1745
WM3526 = tested on: WM3526
WM3619 = tested on: WM3619
WM451Lu = tested on: WM451Lu

Row | Structure (SMILES) | cleaved PARP positive nuclei fraction (MZ2-MEL) | cleaved PARP positive nuclei fraction (MeWo) | cleaved PARP positive nuclei fraction (RPMI7951) | cleaved PARP positive nuclei fraction (RVH-421) | cleaved PARP positive nuclei fraction (SkMel28) | cleaved PARP positive nuclei fraction (SkMel2) | cleaved PARP positive nuclei fraction (SkMel30) | cleaved PARP positive nuclei fraction (SkMel5) | cleaved PARP positive nuclei fraction (UACC257) | cleaved PARP positive nuclei fraction (UACC62) | cleaved PARP positive nuclei fraction (WM115) | cleaved PARP positive nuclei fraction (WM1716) | cleaved PARP positive nuclei fraction (WM1745) | cleaved PARP positive nuclei fraction (WM3526) | cleaved PARP positive nuclei fraction (WM3619) | cleaved PARP positive nuclei fraction (WM451Lu)
1 | CN(c1ncccc1CNc1nc(Nc2ccc3c(c2)CC(=O)N3)ncc1C(F)(F)F)S(C)(=O)=O + O=C(Oc1ccc([N+](=O)[O-])cc1)N1CCC(C(O)(c2ccc3c(c2)OCO3)c2ccc3c(c2)OCO3)CC1 [JZL184] (first compound 0.08 µM, partner dose 1 µM) | 125% | 87.2% | 215% | 192% | 338% | 76.1% | 119% | 210% | 824% | 141% | 64.5% | 233% | 102% | 95.7% | 95.3% | 1350%
2 | NC1(c2ccc(-c3nc4ccn5c(=O)[nH]nc5c4cc3-c3ccccc3)cc2)CCC1 + C/C(O)=C(\C#N)C(=O)Nc1cc(Br)ccc1Br [LFM-A13] (first compound 0.4 µM, partner dose 2 µM) | 73.4% | 43.4% | 91.3% | 91.9% | 536% | 73.6% | 120% | 73.5% | 306% | 129% | 212% | 50.8% | 82.8% | 63.7% | 94.1% | 91.5%
3 | N.N.[Cl][Pt][Cl] [cisplatin] + C[C@@H]1CCN(C(=O)CC#N)C[C@@H]1N(C)c1ncnc2[nH]ccc12 [CP690550] (first compound 1.6 µM, partner dose 1 µM) | 234% | 110% | 176% | 24.4% | 84.3% | 57.9% | 63.4% | 106% | 191% | 78.8% | 48.3% | 88.2% | 93.3% | 62.7% | 102% | 76.9%
4 | Cn1cc(C2=C(c3cn(C4CCN(Cc5ccccn5)CC4)c4ccccc34)C(=O)NC2=O)c2ccccc21 [Enzastaurin] + O=C(O)C(=O)Nc1sc2c(c1C(=O)O)CCNC2 [TCS401] (first compound 0.8 µM, partner dose 1.66667 µM) | 85.4% | 54.5% | 77.1% | 18.7% | 147% | 54.9% | 163% | 76.4% | 439% | 251% | 307% | 486% | 108% | 109% | 87.1% | 59%
5 | C[As](C)SC[C@H](NC(=O)CC[C@H](N)C(=O)O)C(=O)NCC(=O)O [Darinaparsin] + CN(NC(=O)CC(=O)NN(C)C(=S)c1ccccc1)C(=S)c1ccccc1 [STA4783] (first compound 0.4 µM, partner dose 0.006 µM) | 70.8% | 331% | 114% | 76.9% | 151% | 61.4% | 71.4% | 70.4% | 122% | 87.4% | 118% | 98.4% | 262% | 57.2% | 137% | 196%
6 | Cn1sc(=O)n(Cc2ccccc2)c1=O + Cc1cc(SCc2sc(-c3ccc(C(F)(F)F)c(F)c3)nc2C)ccc1OCC(=O)O [GW0742] (first compound 0.4 µM, partner dose 2 µM) | 102% | 94.2% | 55.2% | 135% | 147% | 149% | 41.6% | 69.2% | 70.8% | 92.8% | 114% | 33.7% | 557% | 141% | 101% | 211%
7 | N.N.[Cl][Pt][Cl] [cisplatin] + COc1ccc(-c2ccc3c(N4CCOCC4)nc(N4C[C@@H](C)O[C@@H](C)C4)nc3n2)cc1CO [KU0063794] (first compound 1.6 µM, partner dose 0.02 µM) | 121% | 264% | 69.5% | 104% | 142% | 130% | 131% | 80.6% | 181% | 63.4% | 68% | 100% | 98.9% | 77.5% | 105% | 27.2%
8 | O=C(/C=C/c1cccnc1)NCCCCC1CCN(C(=O)c2ccccc2)CC1 + C/C(O)=C(\C#N)C(=O)Nc1cc(Br)ccc1Br [LFM-A13] (first compound 0.01 µM, partner dose 2 µM) | 513% | 56.4% | 64.3% | 168% | 21.4% | 337% | 92.7% | 162% | 81.7% | 156% | 104% | 28.9% | 79.1% | 66.2% | 141% | 132%
9 | Nc1ncn([C@H]2C[C@H](O)[C@@H](CO)O2)c(=O)n1 [decitabine] + C/C(O)=C(\C#N)C(=O)Nc1cc(Br)ccc1Br [LFM-A13] (first compound 0.1 µM, partner dose 2 µM) | 151% | 155% | 183% | 40.9% | 181% | 116% | 98.5% | 39.7% | 184% | 117% | 373% | 62.1% | 89.2% | 324% | 106% | 76.9%
10 | Cn1cc(C2=C(c3cn(C4CCN(Cc5ccccn5)CC4)c4ccccc34)C(=O)NC2=O)c2ccccc21 [Enzastaurin] + O=C(Nc1cccc(Cl)c1)Nc1ncc(CCNc2ncnc3ccsc23)s1 [SNS314] (first compound 0.8 µM, partner dose 0.0008 µM) | 84.2% | 61.2% | 190% | 152% | 270% | 149% | 116% | 32.9% | 127% | 26.4% | 46.5% | 60.9% | 100% | 56.9% | 87.1% | 53.7%
11 | Nc1nc(F)nc2c1ncn2[C@@H]1O[C@H](CO)[C@@H](O)[C@@H]1O [fludarabine] + Cc1cc(SCc2sc(-c3ccc(C(F)(F)F)c(F)c3)nc2C)ccc1OCC(=O)O [GW0742] (first compound 0.2 µM, partner dose 2 µM) | 109% | 1570% | 116% | 49.4% | 170% | 749% | 78.3% | 933% | 147% | 127% | 110% | 104% | 83.5% | 319% | 90.9% | 391%
12 | Cc1cc(Nc2cc(N3CCN(C)CC3)nc(Sc3ccc(NC(=O)C4CC4)cc3)n2)n[nH]1 [Tozasertib] + O=C(Oc1ccc([N+](=O)[O-])cc1)N1CCC(C(O)(c2ccc3c(c2)OCO3)c2ccc3c(c2)OCO3)CC1 [JZL184] (first compound 0.006 µM, partner dose 1 µM) | 151% | 116% | 60.8% | 65.7% | 153% | 121% | 446% | 78.8% | 73.1% | 88.9% | 179% | 62.2% | 105% | 90.3% | 87% | 38.4%
13 | Cn1cc(C2=C(c3cn(C4CCN(Cc5ccccn5)CC4)c4ccccc34)C(=O)NC2=O)c2ccccc21 [Enzastaurin] + CC(C)CCN1c2nc(Nc3cc(F)c(O)c(F)c3)ncc2N(C)C(=O)C1C [BID1870] (first compound 0.8 µM, partner dose 0.2 µM) | 102% | 92% | 144% | 52.4% | 35.7% | 185% | 40.4% | 76% | 137% | 92.8% | 68.6% | 95.4% | 96.7% | 201% | 87.8% | 44%
14 | CCCCCCCCc1ccc(CCC(N)(CO)CO)cc1 [fingolimod] + C/C(O)=C(\C#N)C(=O)Nc1cc(Br)ccc1Br [LFM-A13] (first compound 2 µM, partner dose 2 µM) | 72.3% | 92.1% | 62.8% | 83.1% | 125% | 62.3% | 156% | 283% | 84.6% | 244% | 122% | 155% | 199% | 175% | 103% | 49.8%
15 | C[As](C)SC[C@H](NC(=O)CC[C@H](N)C(=O)O)C(=O)NCC(=O)O [Darinaparsin] + CC(C)(C)c1cnc(CSc2cnc(NC(=O)C3CCNCC3)s2)o1 [SNS-032] (first compound 0.4 µM, partner dose 0.01 µM) | 205% | 162% | 187% | 78.2% | 60.5% | 118% | 59.3% | 327% | 70.4% | 82.7% | 75.7% | 185% | 110% | 66.1% | 105% | 322%
16 | CN(c1ncccc1CNc1nc(Nc2ccc3c(c2)CC(=O)N3)ncc1C(F)(F)F)S(C)(=O)=O + Cc1cc(SCc2sc(-c3ccc(C(F)(F)F)c(F)c3)nc2C)ccc1OCC(=O)O [GW0742] (first compound 0.08 µM, partner dose 2 µM) | 130% | 63.2% | 218% | 127% | 97.9% | 69.2% | 87.5% | 96.9% | 23.2% | 161% | 189% | 85.1% | 100% | 34.2% | 94.3% | 221%
17 | N.N.[Cl][Pt][Cl] [cisplatin] + CCc1ccc(CCOc2ccc(CC3SC(=O)NC3=O)cc2)nc1 [pioglitazone] (first compound 1.6 µM, partner dose 2 µM) | 304% | 84.3% | 148% | 108% | 182% | 239% | 119% | 81% | 81.4% | 124% | 202% | 195% | 89.3% | 92% | 91.3% | 40.5%
18 | N.N.[Cl][Pt][Cl] [cisplatin] + COc1cc(N2CCC(N3CCN(C)CC3)CC2)ccc1Nc1ncc(Cl)c(Nc2ccccc2S(=O)(=O)C(C)C)n1 [NVP-TAE684] (first compound 1.6 µM, partner dose 0.08 µM) | 212% | 211% | 74% | 102% | 144% | 49.7% | 89.7% | 77.5% | 279% | 76.7% | 147% | 53.5% | 116% | 98.3% | 144% | 72.6%

Exported as tab-separated lines: entries from further up.
Row	Structure (SMILES)	cleaved PARP positive nuclei fraction (MZ2-MEL)	cleaved PARP positive nuclei fraction (MeWo)	cleaved PARP positive nuclei fraction (RPMI7951)	cleaved PARP positive nuclei fraction (RVH-421)	cleaved PARP positive nuclei fraction (SkMel28)	cleaved PARP positive nuclei fraction (SkMel2)	cleaved PARP positive nuclei fraction (SkMel30)	cleaved PARP positive nuclei fraction (SkMel5)	cleaved PARP positive nuclei fraction (UACC257)	cleaved PARP positive nuclei fraction (UACC62)	cleaved PARP positive nuclei fraction (WM115)	cleaved PARP positive nuclei fraction (WM1716)	cleaved PARP positive nuclei fraction (WM1745)	cleaved PARP positive nuclei fraction (WM3526)	cleaved PARP positive nuclei fraction (WM3619)	cleaved PARP positive nuclei fraction (WM451Lu)
10	Cn1cc(C2=C(c3cn(C4CCN(Cc5ccccn5)CC4)c4ccccc34)C(=O)NC2=O)c2ccccc21 [Enzastaurin] + O=C(Nc1cccc(Cl)c1)Nc1ncc(CCNc2ncnc3ccsc23)s1 [SNS314] (first compound 0.8 µM, partner dose 0.0008 µM)	84.2%	61.2%	190%	152%	270%	149%	116%	32.9%	127%	26.4%	46.5%	60.9%	100%	56.9%	87.1%	53.7%
11	Nc1nc(F)nc2c1ncn2[C@@H]1O[C@H](CO)[C@@H](O)[C@@H]1O [fludarabine] + Cc1cc(SCc2sc(-c3ccc(C(F)(F)F)c(F)c3)nc2C)ccc1OCC(=O)O [GW0742] (first compound 0.2 µM, partner dose 2 µM)	109%	1570%	116%	49.4%	170%	749%	78.3%	933%	147%	127%	110%	104%	83.5%	319%	90.9%	391%
12	Cc1cc(Nc2cc(N3CCN(C)CC3)nc(Sc3ccc(NC(=O)C4CC4)cc3)n2)n[nH]1 [Tozasertib] + O=C(Oc1ccc([N+](=O)[O-])cc1)N1CCC(C(O)(c2ccc3c(c2)OCO3)c2ccc3c(c2)OCO3)CC1 [JZL184] (first compound 0.006 µM, partner dose 1 µM)	151%	116%	60.8%	65.7%	153%	121%	446%	78.8%	73.1%	88.9%	179%	62.2%	105%	90.3%	87%	38.4%
13	Cn1cc(C2=C(c3cn(C4CCN(Cc5ccccn5)CC4)c4ccccc34)C(=O)NC2=O)c2ccccc21 [Enzastaurin] + CC(C)CCN1c2nc(Nc3cc(F)c(O)c(F)c3)ncc2N(C)C(=O)C1C [BID1870] (first compound 0.8 µM, partner dose 0.2 µM)	102%	92%	144%	52.4%	35.7%	185%	40.4%	76%	137%	92.8%	68.6%	95.4%	96.7%	201%	87.8%	44%
